Results reported in US20250208136A1, “Peptides and combinations of peptides for use in immunotherapy against oropharyngeal squamous cell carcinoma (OPSCC) and other cancers” (Eberhard Karls Universität Tübingen Medizinische Fakultät, priority 2022, published 2025).

Test system: HLA class I ligandomes of OPSCC tissue samples
Assay: LC-MS/MS analysis of HLA class I ligandomes isolated from OPSCC tissue samples
Parameters: species or system human
Conditions: for Peptide Representation frequency in allotype-positive samples: OPSCC samples positive for the restricting HLA allotype; for Peptide Representation frequency in cohort: whole OPSCC cohort (n=40), HLA class I ligands

Sequence | Peptide Representation frequency in allotype-positive samples [%] | Peptide Representation frequency in cohort [%]
ALLGSAFQL [SEQ ID NO: 19, MHC/HLA class I peptide, allotype A*02:01] | 14 | 8
ALTDIVSQV [SEQ ID NO: 21, MHC/HLA class I peptide, allotype A*02:01] | 18 | 10
ARLAFVIVF [SEQ ID NO: 55, MHC/HLA class I peptide, allotype C*07:01] | 15 | 5
ARLIPIIVL [SEQ ID NO: 62, MHC/HLA class I peptide, allotype C*06:02] | 43 | 8
DATETTITI [SEQ ID NO: 39, MHC/HLA class I peptide, allotype B*51:01] | 23 | 8
DQYKFLAV [SEQ ID NO: 40, MHC/HLA class I peptide, allotype B*51:01] | 54 | 18
EETNPKGSGW [SEQ ID NO: 46, MHC/HLA class I peptide, allotype B*44:02] | 64 | 13
EMEAQNQEY [SEQ ID NO: 26, MHC/HLA class I peptide, allotype A*01:01] | 29 | 10
GLWEDGRSTLL [SEQ ID NO: 18, MHC/HLA class I peptide, allotype A*02:01] | 14 | 8
GVLENIFGV [SEQ ID NO: 15, MHC/HLA class I peptide, allotype A*02:01] | 23 | 13
HGTIKNQL [SEQ ID NO: 42, MHC/HLA class I peptide, allotype B*08:01] | 30 | 8
KLAEISLGV [SEQ ID NO: 16, MHC/HLA class I peptide, allotype A*02:01] | 18 | 10
KYMYFTVVM [SEQ ID NO: 33, MHC/HLA class I peptide, allotype A*24:02] | 58 | 18
NWPSRPYLF [SEQ ID NO: 34, MHC/HLA class I peptide, allotype A*24:02] | 33 | 10
REVVDPEVFF [SEQ ID NO: 49, MHC/HLA class I peptide, allotype B*40:01] | 50 | 8
RLDDLKMTV [SEQ ID NO: 17, MHC/HLA class I peptide, allotype A*02:01] | 23 | 13
RLLEGEDAHL [SEQ ID NO: 20, MHC/HLA class I peptide, allotype A*02:01] | 27 | 15
RTDIARTEY [SEQ ID NO: 27, MHC/HLA class I peptide, allotype A*01:01] | 29 | 10
RTEFNLNQY [SEQ ID NO: 25, MHC/HLA class I peptide, allotype A*01:01] | 57 | 20
SAVKEGTAM [SEQ ID NO: 60, MHC/HLA class I peptide, allotype C*03:04] | 22 | 5
SEPNDVFFKL [SEQ ID NO: 50, MHC/HLA class I peptide, allotype B*40:01] | 50 | 8
SPEDGIHEL [SEQ ID NO: 57, MHC/HLA class I peptide, allotype C*04:01] | 25 | 8
VAAPRWVL [SEQ ID NO: 43, MHC/HLA class I peptide, allotype B*08:01] | 30 | 8
VALPVYLLI [SEQ ID NO: 41, MHC/HLA class I peptide, allotype B*51:01] | 31 | 10
VFDLVELEVL [SEQ ID NO: 58, MHC/HLA class I peptide, allotype C*04:01] | 17 | 5
YEEAMKEVL [SEQ ID NO: 61, MHC/HLA class I peptide, allotype C*03:04] | 22 | 5
YEIDDVERL [SEQ ID NO: 59, MHC/HLA class I peptide, allotype C*03:04] | 33 | 8
YSELASHVVSY [SEQ ID NO: 28, MHC/HLA class I peptide, allotype A*01:01] | 57 | 20
YTFRYPLSL [SEQ ID NO: 54, MHC/HLA class I peptide, allotype C*07:01] | 23 | 8
